Assay results reported in the supplement of paper PMC3334620.
Whole data set: some 33,000 sequences, median “E-score (-0.5 to 0.5)” near -0.0034, cut for the highest 2% near 0.25. Some of the results follow.

target: T1, Yap3 (UniProt P38749); assay: PBM E-score (8-mer binding enrichment) (E-score (-0.5 to 0.5)); higher = stronger / more preferred TF binding; details: protein concentration: 100 nM; construct: GST-full length
T1 sequence: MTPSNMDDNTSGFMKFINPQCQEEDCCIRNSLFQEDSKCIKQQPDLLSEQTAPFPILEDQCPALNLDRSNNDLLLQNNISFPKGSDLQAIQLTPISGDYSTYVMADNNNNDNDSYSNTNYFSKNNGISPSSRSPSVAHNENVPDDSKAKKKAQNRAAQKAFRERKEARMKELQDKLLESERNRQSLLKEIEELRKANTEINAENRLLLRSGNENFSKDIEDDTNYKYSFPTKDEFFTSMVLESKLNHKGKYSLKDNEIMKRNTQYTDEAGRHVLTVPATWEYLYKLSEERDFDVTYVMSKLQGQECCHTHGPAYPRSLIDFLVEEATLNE
Summary of the method: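 Using PURExpress in vitro transcription/translation, GST-tagged yeast transcription factors were made in full-length or DNA-binding-domain form. These were applied at about 100-200 nM to double-stranded universal all-10-mer Agilent arrays, and bound protein was detected with fluorescent anti-GST. Scans were normalised with masliner before the Universal PBM Analysis Suite assigned E-scores to ungapped eight-base words pooled with their reverse complements.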

Sequence | PBM E-score
AAAACATT | 0.184
CGGTAGTC | -0.15
TCCCACAA | 0.0374
GCAATGAC | -0.147
GAACTAAC | 0.0778
CGTCGGGC | -0.331
CTTATCCC | -0.0627
AATACTCC | -0.0908
CAGTGCCC | -0.192
GGTCAGAC | -0.157
ATCCATCA | 0.0452
CCTTTCCA | -0.0109
CGATAACC | 0.133
GCCTCTAA | 0.0367
CGGTTATA | 0.0465
GAAGCGTA | 0.102
GACCTTTA | 0.0224
GCACGGGA | -0.139
CTGCCCGC | -0.054
ACTGAGGC | 0.0378
AATCTATC | 0.132
AACTGGAT | 0.0502
GATGTCTA | -0.122
AATGGAAT | 0.275
CCTTTACG | 0.196

Sequence | PBM E-score
CTGAAGCC | -0.0791
ATAAAGTG | 0.271
CCTAGGAA | 0.0329
CAATGTGG | 0.0977
ACTAGATA | 0.154
ATAGTTTC | 0.0469
CTGACTCA | 0.193
CAGTACGC | -0.0471
GGCGAGAC | -0.0881
ATTTTGTC | 0.121
GATCTGAA | -0.131
ACGCTAAA | 0.0669
GGCCATCA | 0.00743
ACCTTCAT | 0.0296
AAGTTATT | 0.174
CAGTCGAA | -0.0956
ACTTTTTA | 0.217
TGCCCTAA | -0.0308
AAGATAAC | 0.111
CGGTGTCC | -0.183
ACGTAGCT | -0.0319
GCAGCGCC | -0.127
CTGGGTGA | -0.117
GCAACGCA | -0.299
ATCGTAAA | 0.0157

Sequence | PBM E-score
GGCGTGTA | -0.062
CACCTTTC | 0.00551
TCACCCGA | -0.0121
AAGAGCGG | 0.0316
AGAGCAAT | -0.0752
CGGTACTC | -0.129
ATGGTCCC | -0.109
GACATTGC | -0.0542
ATATTTAA | 0.339
CGGGCCAA | -0.174
CACTAAGA | -0.0286
ATAGCTCA | 0.0139
AACATAGT | 0.111
ATCCTGTC | -0.0189
GCATAAAC | 0.14
CTAAGTAC | 0.016
AAGAGGAC | -0.0595
CACATCAC | 0.00734
TCAGACGA | 0.0132
AGCTGATA | 0.203
AAAAAGAC | 0.153
ACGCTTAA | 0.00482
ACACCAGC | -0.0881
GCGCAAGC | -0.192
ACTCGGTC | -0.0681

Sequence | PBM E-score
TAGACTCA | -0.093
AGGGGACC | -0.315
CGCTTTGA | 0.0787
ATAATAAA | 0.277
TACCATCA | -0.0163
GGGTAAGA | -0.0599
AACTCGCG | 0.16
ACTAGTCC | 0.0839
CTAATACC | -0.00244
ATTAGTTG | 0.192
GCCTACTA | 0.0106
CGATTACA | 0.0949
ATGCCAAA | 0.0184
ATCCTGAA | 0.101
AGACATCG | -0.0691
AAGGTGGA | -0.11
AATGGCGC | -0.0261
CGGTAAAC | -0.0335
ACTGCTAT | 0.0347
CACAGCAA | 0.103
ACCGGTAT | -0.0131
CGACGTAA | 0.19
GTCCCCGA | -0.15
CGACTCAA | 0.143
ACGCGCGA | 0.033

Some of the entries so far, as labelled records:
CGATTACA
  PBM E-score: 0.0949
ATGCCAAA
  PBM E-score: 0.0184
ATCCTGAA
  PBM E-score: 0.101

Further results follow.

Sequence | PBM E-score
AGTTATAT | 0.213
AACTCATA | 0.0078
CCGAGAGA | 0.0746
CGGACAGC | -0.00453
ACTCTAGG | -0.204
GAACTATA | 0.244
GTACGAAA | 0.173
ACTCACCT | 0.0229
CGGGACAG | -0.0087
AGCGCCAA | -0.09
GTTGCTCA | 0.00846
GAGTTTCC | -0.0875
ACAGAGTC | -0.00646
GTTACCAA | 0.221
AAAGAGCA | 0.132
CTGCCCGA | 0.00809
AAAAACCT | 0.141
CGGTGACC | -0.188
AGCAACCA | 0.199
AAATCGGC | 0.0436
AGTATTAG | 0.327
CCATCACA | -0.0823
CACGGATG | -0.164
AACTGATG | 0.116
ATTGCCTG | 0.0751

Sequence | PBM E-score
GAACATTA | 0.138
AGGGCCTG | -0.23
CAAGGGGA | -0.0404
TCAAATCA | 0.105
CGAGTCTA | -0.241
AAAGGGTA | 0.0592
AAGCGCCC | -0.242
AGGAAGGC | -0.202
GCTATAAC | -0.0777
GTGTTTCA | -0.0433
CTCGGCGA | 0.129
AAAGGAAA | 0.131
ATGTAACA | 0.256
GGGCCACC | -0.256
CTTCAGAA | -0.028
CCCCACCC | 0.1
CCCTACGC | -0.221
GCCTGAAC | -0.28
ATCAGCCC | 0.0268
CCATATTC | 0.103
CAATGTCC | -0.0423
ACCTTCGG | -0.0953
GTGCCAGA | -0.269
CAGTATGC | -0.0936
AGTGTAAA | 0.0399

Sequence | PBM E-score
TATCTCGA | 0.0776
CGCTTGGA | 0.00137
GCCTCACC | -0.163
GGCTCGAC | -0.0402
AGAGGCCT | -0.118
AAGGTTGC | -0.0131
ATCGATGG | 0.0551
CGGTATAC | -0.0811
GGTATGCA | -0.104
AGTTTTGA | 0.05
AAATCTAA | 0.0988
GGGCCCAA | -0.191
CACGTGTC | -0.0684
CGGGGGGC | -0.396
GGGATTGA | -0.173
GCAGCAAA | -0.0366
ACTCTAAT | 0.116
GATCCTCC | -0.122
ACTCCAAC | -0.0571
AATGGCCT | 0.00783
GGATGGAA | -0.0998
CGGACGCC | -0.0755

2 entries from above, with tabs:
Sequence	PBM E-score
GGTATGCA	-0.104
AGTTTTGA	0.05
